# Laboratory results reported in the supplement of paper PMC8728848.
# The other results are listed elsewhere or left out.
# Columns and labels:
# Experiment in all cases: glycan array binding signal (z-score within array); higher = stronger binding
# Details in all cases: glycan notation: IUPAC condensed, linker removed
# Fuc(a1-2)Gal = molecular target: Fuc(a1-2)Gal
# Summary of the method: (§1)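 The binding signal is a Z-score computed within each array and averaged over linkers. Arrays of the same protein sequence at different concentrations or buffers were also averaged together. Data originate from 3228 arrays in the Consortium for Functional Glycomics database, kept only where the protein sequence was available.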
# Fuc(a1-2)Gal(b1-3)GalNAc = molecular target: Fuc(a1-2)Gal(b1-3)GalNAc
# Summary of the method: as §1
# [1] = molecular target: Fuc(a1-2)Gal(b1-3)GalNAc(a1-3)[Fuc(a1-2)]Gal(b1-4)Glc
# Summary of the method: as §1
# [2] = molecular target: Fuc(a1-2)Gal(b1-3)GalNAc(a1-3)[Fuc(a1-2)]Gal(b1-4)GlcNAc
# Summary of the method: as §1
# [3] = molecular target: Fuc(a1-2)Gal(b1-3)GalNAc(b1-3)Gal
# Summary of the method: as §1
# [4] = molecular target: Fuc(a1-2)Gal(b1-3)GalNAc(b1-3)Gal(a1-4)Gal(b1-4)Glc
# Summary of the method: as §1
# [5] = molecular target: Fuc(a1-2)Gal(b1-3)GalNAc(b1-4)[Neu5Ac(a2-3)]Gal(b1-4)Glc
# Summary of the method: as §1
# Fuc(a1-2)Gal(b1-3)GlcNAc = molecular target: Fuc(a1-2)Gal(b1-3)GlcNAc
# Summary of the method: as §1
# [6] = molecular target: Fuc(a1-2)Gal(b1-3)GlcNAc(b1-2)Man(a1-3)[Fuc(a1-2)Gal(b1-3)GlcNAc(b1-2)Man(a1-6)]Man(b1-4)GlcNAc(b1-4)GlcNAc
# Summary of the method: as §1
# [7] = molecular target: Fuc(a1-2)Gal(b1-3)GlcNAc(b1-2)Man(a1-3)[Fuc(a1-2)Gal(b1-3)GlcNAc(b1-2)Man(a1-6)]Man(b1-4)GlcNAc(b1-4)[Fuc(a1-6)]GlcNAc
# Summary of the method: as §1
# [8] = molecular target: Fuc(a1-2)Gal(b1-3)GlcNAc(b1-3)Gal(b1-4)Glc
# Summary of the method: as §1
# [9] = molecular target: Fuc(a1-2)Gal(b1-3)GlcNAc(b1-3)GalNAc
# Summary of the method: as §1
# [10] = molecular target: Fuc(a1-2)Gal(b1-3)GlcNAc(b1-3)[Fuc(a1-2)Gal(b1-3)GlcNAc(b1-6)]GalNAc
# Summary of the method: as §1
# [11] = molecular target: Fuc(a1-2)Gal(b1-3)GlcNAc(b1-3)[Gal(b1-4)GlcNAc(b1-6)]Gal(b1-4)Glc
# Summary of the method: as §1
# [12] = molecular target: Fuc(a1-2)Gal(b1-3)GlcNAc(b1-3)[Neu5Ac(a2-6)Gal(b1-4)GlcNAc(b1-6)]Gal(b1-4)Glc
# Summary of the method: as §1
# [13] = molecular target: Fuc(a1-2)Gal(b1-3)GlcNAc6S
# Summary of the method: as §1
# [14] = molecular target: Fuc(a1-2)Gal(b1-3)[Fuc(a1-4)]GlcNAc
# Summary of the method: as §1
# [15] = molecular target: Fuc(a1-2)Gal(b1-3)[Fuc(a1-4)]GlcNAc(b1-2)Man(a1-3)[Fuc(a1-2)Gal(b1-3)[Fuc(a1-4)]GlcNAc(b1-2)Man(a1-3)]Man(b1-4)GlcNAc(b1-4)GlcNAc
# Summary of the method: as §1
# [16] = molecular target: Fuc(a1-2)Gal(b1-3)[Fuc(a1-4)]GlcNAc(b1-2)Man(a1-3)[Fuc(a1-2)Gal(b1-3)[Fuc(a1-4)]GlcNAc(b1-2)Man(a1-6)]Man(b1-4)GlcNAc(b1-4)[Fuc(a1-6)]GlcNAc(b1-4)[Fuc(a1-6)]GlcNAc
# Summary of the method: as §1
# [17] = molecular target: Fuc(a1-2)Gal(b1-3)[Fuc(a1-4)]GlcNAc(b1-3)[Fuc(a1-3)[Gal(b1-4)]GlcNAc(b1-6)]Gal(b1-4)Glc
# Summary of the method: as §1
# [18] = molecular target: Fuc(a1-2)Gal(b1-3)[Fuc(a1-4)]GlcNAc(b1-3)[Gal(b1-4)GlcNAc(b1-6)]Gal(b1-4)Glc
# Summary of the method: as §1
# Fuc(a1-2)Gal(b1-4)Glc = molecular target: Fuc(a1-2)Gal(b1-4)Glc
# Summary of the method: as §1
# Fuc(a1-2)Gal(b1-4)Glc6S = molecular target: Fuc(a1-2)Gal(b1-4)Glc6S
# Summary of the method: as §1
# Fuc(a1-2)Gal(b1-4)GlcNAc = molecular target: Fuc(a1-2)Gal(b1-4)GlcNAc
# Summary of the method: as §1
# [19] = molecular target: Fuc(a1-2)Gal(b1-4)GlcNAc(b1-2)Man
# Summary of the method: as §1
# [20] = molecular target: Fuc(a1-2)Gal(b1-4)GlcNAc(b1-2)Man(a1-3)[Fuc(a1-2)Gal(b1-4)GlcNAc(b1-2)Man(a1-6)]Man(b1-4)GlcNAc(b1-4)GlcNAc
# Summary of the method: as §1
# [21] = molecular target: Fuc(a1-2)Gal(b1-4)GlcNAc(b1-2)Man(a1-3)[Fuc(a1-2)Gal(b1-4)GlcNAc(b1-2)Man(a1-6)]Man(b1-4)GlcNAc(b1-4)[Fuc(a1-6)]GlcNAc
# Summary of the method: as §1
# [22] = molecular target: Fuc(a1-2)Gal(b1-4)GlcNAc(b1-2)[Fuc(a1-2)Gal(b1-4)GlcNAc(b1-4)]Man(a1-3)[Fuc(a1-2)Gal(b1-4)GlcNAc(b1-2)Man(a1-6)]Man(b1-4)GlcNAc(b1-4)GlcNAc
# Summary of the method: as §1
# [23] = molecular target: Fuc(a1-2)Gal(b1-4)GlcNAc(b1-3)Gal(b1-4)GlcNAc
# Summary of the method: as §1
# [24] = molecular target: Fuc(a1-2)Gal(b1-4)GlcNAc(b1-3)Gal(b1-4)GlcNAc(b1-2)Man(a1-3)[Fuc(a1-2)Gal(b1-4)GlcNAc(b1-3)Gal(b1-4)GlcNAc(b1-2)Man(a1-6)]Man(b1-4)GlcNAc(b1-4)GlcNAc
# Summary of the method: as §1
binder,measurement,setting,value
Pwp1 (Candida glabrata) (protein) MGSSHHHHHHSSGLVPRGSHMASANPISITNVCQFPDNWARTAGFQATTVRLGLTIASNTYKELLNYPGLFNFATQKATVTQPNFSISGFPFFTGLYGLTVWPINLLVELQGYFVPPESGNYTFTLQGSDDAAILFFANPSTFACGSQNDWPQPREADITVTDTLVPSRTLYLVKGVAYPIRIAYYNGSGDGKLNVSFKDPSGTTHTDWKGYVWQYSNTCSTCTYT,glycan array binding signal (z-score),Fuc(a1-2)Gal,-0.395
same,glycan array binding signal (z-score),Fuc(a1-2)Gal(b1-3)GalNAc,0.522
same,glycan array binding signal (z-score),[1],0.159
same,glycan array binding signal (z-score),[2],-0.858
same,glycan array binding signal (z-score),[3],0.137
same,glycan array binding signal (z-score),[4],0.24
same,glycan array binding signal (z-score),[5],2.14
same,glycan array binding signal (z-score),Fuc(a1-2)Gal(b1-3)GlcNAc,0.372
same,glycan array binding signal (z-score),[6],-1.87
same,glycan array binding signal (z-score),[7],-0.078
same,glycan array binding signal (z-score),[8],-0.089
same,glycan array binding signal (z-score),[9],0.459
same,glycan array binding signal (z-score),[10],-2.13
same,glycan array binding signal (z-score),[11],-0.944
same,glycan array binding signal (z-score),[12],0.925
same,glycan array binding signal (z-score),[13],0.319
same,glycan array binding signal (z-score),[14],0.731
same,glycan array binding signal (z-score),[15],0.443
same,glycan array binding signal (z-score),[16],0.886
same,glycan array binding signal (z-score),[17],0.622
same,glycan array binding signal (z-score),[18],0.973
same,glycan array binding signal (z-score),Fuc(a1-2)Gal(b1-4)Glc,0.089
same,glycan array binding signal (z-score),Fuc(a1-2)Gal(b1-4)Glc6S,-0.871
same,glycan array binding signal (z-score),Fuc(a1-2)Gal(b1-4)GlcNAc,0.296
same,glycan array binding signal (z-score),[19],0.71
same,glycan array binding signal (z-score),[20],0.122
same,glycan array binding signal (z-score),[21],0.843
same,glycan array binding signal (z-score),[22],0.988
same,glycan array binding signal (z-score),[23],1.09
same,glycan array binding signal (z-score),[24],-1.11

# Reformatted: results already given.
binder | measurement | setting | value
Pwp1 (Candida glabrata) (protein) MGSSHHHHHHSSGLVPRGSHMASANPISITNVCQFPDNWARTAGFQATTVRLGLTIASNTYKELLNYPGLFNFATQKATVTQPNFSISGFPFFTGLYGLTVWPINLLVELQGYFVPPESGNYTFTLQGSDDAAILFFANPSTFACGSQNDWPQPREADITVTDTLVPSRTLYLVKGVAYPIRIAYYNGSGDGKLNVSFKDPSGTTHTDWKGYVWQYSNTCSTCTYT | glycan array binding signal (z-score) | [15] | 0.443
same | glycan array binding signal (z-score) | [16] | 0.886
